The record followed here is the supplement of paper PMC8728848.

Holding throughout (assay): glycan array binding signal (z-score within array); higher = stronger binding
Common to all, as to settings: glycan notation: IUPAC condensed, linker removed

Experiment [1] has as its target Gal(b1-4)GlcNAc(b1-2)Man(a1-3)[Gal(b1-4)GlcNAc(b1-2)Man(a1-6)]Man(b1-4)GlcNAc(b1-4)GlcNAc. The method, boiled down: (§1)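 Columns mapping to the same glycan were averaged after glycan names were converted to IUPAC-condensed notation. The data come from 3228 arrays in the Consortium for Functional Glycomics database, limited to those with an available protein sequence. Binding is reported as a within-array Z-score averaged across arrays of one protein sequence and across linkers.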

Experiment [2] concerns the target Gal(b1-4)GlcNAc(b1-2)Man(a1-3)[Gal(b1-4)GlcNAc(b1-2)Man(a1-6)]Man(b1-4)GlcNAc(b1-4)[Fuc(a1-6)]GlcNAc. The method, boiled down:
as §1

Experiment [3] addresses Gal(b1-4)GlcNAc(b1-2)Man(a1-3)[Gal(b1-4)GlcNAc(b1-2)Man(a1-6)][Gal(b1-4)GlcNAc(b1-4)]Man(b1-4)GlcNAc(b1-4)[Fuc(a1-6)]GlcNAc. The method, boiled down:
as §1

For experiment [4], the target named is Gal(b1-4)GlcNAc(b1-2)Man(a1-3)[Gal(b1-4)GlcNAc(b1-2)Man(a1-6)][GlcNAc(b1-4)]Man(b1-4)GlcNAc(b1-4)[Fuc(a1-6)]GlcNAc. In a few lines:
as §1

The target of experiment [5] is Gal(b1-4)GlcNAc(b1-2)Man(a1-3)[GlcNAc(b1-2)Man(a1-6)]Man(b1-4)GlcNAc(b1-4)GlcNAc. The method, boiled down: as §1
In experiment [6] the target is Gal(b1-4)GlcNAc(b1-2)Man(a1-3)[GlcNAc(b1-4)][Gal(b1-4)GlcNAc(b1-2)Man(a1-6)]Man(b1-4)GlcNAc(b1-4)GlcNAc. The method, boiled down:
as §1

Experiment [7] concerns the target Gal(b1-4)GlcNAc(b1-2)Man(a1-3)[Man(a1-6)]Man(b1-4)GlcNAc(b1-4)GlcNAc. The method, boiled down:
as §1

Experiment [8] concerns the target Gal(b1-4)GlcNAc(b1-2)Man(a1-6)Man(b1-4)GlcNAc(b1-4)GlcNAc. The method, boiled down: as §1
For experiment [9], the target named is Gal(b1-4)GlcNAc(b1-2)Man(a1-6)[GlcNAc(b1-2)Man(a1-3)]Man(b1-4)GlcNAc(b1-4)GlcNAc. In a few lines:
as §1

In experiment [10] the target is Gal(b1-4)GlcNAc(b1-2)Man(a1-6)[Man(a1-3)]Man(b1-4)GlcNAc(b1-4)GlcNAc. The method, boiled down: as §1
Experiment [11] addresses Gal(b1-4)GlcNAc(b1-2)[Gal(b1-4)GlcNAc(b1-4)]Man(a1-3)[Gal(b1-4)GlcNAc(b1-2)Man(a1-6)]Man(b1-4)GlcNAc(b1-4)GlcNAc. The method, boiled down:
as §1

For experiment [12], the target named is Gal(b1-4)GlcNAc(b1-2)[Gal(b1-4)GlcNAc(b1-4)]Man(a1-3)[Gal(b1-4)GlcNAc(b1-2)[Gal(b1-4)GlcNAc(b1-6)]Man(a1-6)]Man(b1-4)GlcNAc(b1-4)GlcNAc. The method, boiled down:
as §1

In experiment [13] the target is Gal(b1-4)GlcNAc(b1-2)[Gal(b1-4)GlcNAc(b1-4)]Man(a1-3)[GlcNAc(b1-4)][Gal(b1-4)GlcNAc(b1-2)Man(a1-6)]Man(b1-4)GlcNAc(b1-4)GlcNAc. In a few lines: as §1
The target in experiment [14] is Gal(b1-4)GlcNAc(b1-2)[Gal(b1-4)GlcNAc(b1-4)]Man(a1-3)[GlcNAc(b1-4)][Gal(b1-4)GlcNAc(b1-2)[Gal(b1-4)GlcNAc(b1-6)]Man(a1-6)]Man(b1-4)GlcNAc(b1-4)GlcNAc. The method, boiled down: as §1
The target of experiment [15] is Gal(b1-4)GlcNAc(b1-2)[Gal(b1-4)GlcNAc(b1-6)]Man(a1-6)[Gal(b1-4)GlcNAc(b1-2)Man(a1-3)]Man(b1-4)GlcNAc(b1-4)GlcNAc. The method, boiled down: as §1
Experiment [16] deals with Gal(b1-4)GlcNAc(b1-2)[Gal(b1-4)GlcNAc(b1-6)]Man(a1-6)[Gal(b1-4)GlcNAc(b1-2)Man(a1-3)]Man(b1-4)GlcNAc(b1-4)[Fuc(a1-6)]GlcNAc. In a few lines: as §1
Experiment [17] concerns the target Gal(b1-4)GlcNAc(b1-2)[Gal(b1-4)GlcNAc(b1-6)]Man(a1-6)[GlcNAc(b1-4)][Gal(b1-4)GlcNAc(b1-2)Man(a1-3)]Man(b1-4)GlcNAc(b1-4)GlcNAc. In a few lines:
as §1

Experiment [18] concerns the target Gal(b1-4)GlcNAc(b1-2)[Gal(b1-4)GlcNAc(b1-6)]Man(a1-6)[GlcNAc(b1-4)][Gal(b1-4)GlcNAc(b1-2)[Gal(b1-4)GlcNAc(b1-4)]Man(a1-3)]Man(b1-4)GlcNAc(b1-4)[Fuc(a1-6)]GlcNAc. In a few lines:
as §1

Experiment [19] deals with Gal(b1-4)GlcNAc(b1-3)Gal(b1-3)GalNAc. The method, boiled down: as §1
Experiment [20] deals with Gal(b1-4)GlcNAc(b1-3)Gal(b1-3)GlcNAc. In a few lines:
as §1

The target of experiment [21] is Gal(b1-4)GlcNAc(b1-3)Gal(b1-4)Glc. The method, boiled down:
as §1

The target of experiment [22] is Gal(b1-4)GlcNAc(b1-3)Gal(b1-4)GlcNAc. In a few lines:
as §1

For experiment [23], the target named is Gal(b1-4)GlcNAc(b1-3)Gal(b1-4)GlcNAc(b1-2)Man(a1-3)[Gal(b1-4)GlcNAc(b1-3)Gal(b1-4)GlcNAc(b1-2)Man(a1-6)]Man(b1-4)GlcNAc(b1-4)GlcNAc. The method, boiled down: as §1

This is one part of the list.

B1: AT1G80310(18) (Arabidopsis thaliana), Q0WP36 (protein)
chain: METTTTPLLPGDRSRCGWLRRRLRLKNPLSSELSGAVGDLGTFIPIVLTLTLVSNLDLSTTLIFTGFYNIATGLLFDIPMPVQPMKSIAAVAVSESPHLTPSQIAAAGASTAATLLLLGATGAMSFLYNIIPLPVVRGVQLSQGLQFAFTAIKYVRFNYDTATLKPSSSPRIWLGLDGLILALAALLFIILSTGSGNDREAEDGDLAETSSNESQSRRRRLRLLSSIPSALIVFALGLVLCFIRDPSIFKDLKFGPSKFHILRISWDDWKIGFLRAAIPQIPLSVLNSVIAVCKLSNDLFDKELSATTVSISVGVMNLIGCWFGAMPVCHGAGGLAGQYRFGARSGLSVIFLGIGKLIVGLVFGNSFVRILSQFPIGILGVLLLFAGIELAMASKDMNSKEDSFIMLVCAAVSMTGSSAALGFGCGVVLYLLLKLRTLDCSSVTLFSRSSDESQVDSEAAPRDV
In the case of B1, the “glycan array binding signal (z-score)” value in [1] was -0.701; in experiment [2], -0.489; in [3], -0.313; in [4], 4.28; in experiment [5], -0.038; in experiment [6] it was -0.179. Also, the “glycan array binding signal (z-score)” value in experiment [7] is 0.388; in experiment [8], -0.165; in [9], -0.769; in experiment [10], 0.006; in experiment [11], 0.305; in experiment [12] it was -0.459. In addition, the “glycan array binding signal (z-score)” value in [13] is -0.691; in [14] it was -0.562; in experiment [15], 0.482; in experiment [16] it was 0.23; in [17] it was 0.735; in [18] it was 2.65. Besides, the “glycan array binding signal (z-score)” value in [19] was -0.393; in experiment [20] it was 1.15; in experiment [21], 0.568; in experiment [22] it was 0.504; in experiment [23], -0.442.
